Results are given in words; binding and its absence hold for the method and conditions named. In cells and extracts the contact can be indirect. Some entries that bind do so weakly or less than the wild type. Where a sequence is shown, tags or fusion partners need not be part of it.
B1: Cut3 (fission yeast condensin subunit) (protein, UniProt P41004 1-1324)
chain: MSDKGIFRTSSTPSIVDVTPDRGERPRKLVRSVLESPSQKDVASIVKIEQTPSRPFFNDFLKKRITDSLNERPNLLNKFMSAQDGTPSKSTGFNERSSQLVSEFTTTEDIENCEETTQVLPPRLVVYELRLTNFKSYAGTQIVGPFHPSFSSIVGPNGSGKSNVIDALLFVFGFRASKLRQSKASALIHKSATHPSLDSCDVEITFKEVNSDFTYVDGSELTVRRTAYKNNTSKYFVNGVESSFSAVSNLLKEKGIDLNHKRFLILQGEVESIAQMKPRAISEGDDGLLEYLEDIIGTSKYKPIIEENMQELSNSDDICAEKESRLKLVLSEKAKLEDSKNSVLSFLKDENELFMKQNQLYRTILYETRNKKTLVQNLLNSLEGKLQAHLEKFEQTERDISEKNEEVKSLREKAAKVKNDCTSEKKTRQSYEQQTVKIEEQLKFLLNKEKKLKKSIEALSFEKSEAENSLSSHDIDSQKLNSEIADLSLRLQQEELSLDDIRKSLQGKTEGISNAIEEKQKAMAPALEKINQLTSEKQILQVELDMLLNKENDLINDVESSQSSLDKLRNDAEENRNILSSKLKVLSDLKGEKKDVSKNIERKKETVHNTYRNLMSNRTKLEEMKASLSSSRSRGNVLESLQRLHESDNLNGFFGRLGDLATIDEAYDVAISTACPALNHIVVDNIETGQKCVAFLRSNNLGRASFIILKELAQKNLARIQTPENVPRLFDLLRFNDQKFAPAFYNVLQNTLVAKNLEQANRIAYGKTRWRVVTLSGQLIDKSGTMTGGGTRVKKGGMSSAITSDVSPASVETCDKQVQLEDTRYRQHLSELESLNQRFTEISERIPSAELEISKLQLDVSACDRLVAGEERRILQLKSDLKSIRNNNERKRNLQNKISNMDKEVEAININNEGLVTEIKTLQDKIMEIGGIRYRIQKSKVDDLHEQLKFVKDKLNKMSFKKKKNEQRSQSFQVELSNLTSEYDTTTESIATLKTELQSLNKYVDEHKSRLREFENALWDINSSIDELVKFIEFESKQMNSVKAERIELENQIQEQRTALSEVGNNENKYLKLMSNLKLHNLTEFCDQTTMDSTFPEYSEDELSSVDKSELVSNISVLKKKTEDREVDINVLSEYRRCNKEAEKRDSDYQSELQKRTDLKKVVTDLQSQRLDEFMYGFGIISMKLKEMYQIITMGGNAELELVDSLDPFSEGVLFSVMPPKKSWKNISNLSGGEKTLSSLALVFALHNYKPTPLYVMDEIDAALDFKNVSIVANYIKERTKNAQFIVISLRSNMFELSSRLVGIYKTANMTKSVTINNKEILTD
B2: Cut14-Pk3 (fission yeast condensin subunit Cut14 with a Pk epitope tag) (protein, UniProt P41003 1-1172)
chain: MKIEELIIDGFKSYAVRTVISNWDDQFNAITGLNGSGKSNILDAICFVLGITNMSTVRAQNLQDLIYKRGQAGITRASVTIVFNNRDPASSPIGFENHPQVSVTRQIIMGGTSKYLINGHRALQQNVQNLFQSVQLNINNPNFLIMQGRITKVLNMKATEILSMIEEASGTRMFEERKEKAFRTMQRKEAKVEEINTLLREEIEPRLTKLRTEKKTFLEYQHIYNDLERLSHLCTAYDYYKLSLKVEELTVQASQKHSHIAEMESSLQTSKQEVLILKEKIKKIEDERMRQMSVSSDRTLDSQLQTVNENITRISTSIELKNTALEEEHGDLQQIRGKAKELETLLRGKRKRLDEVLSVYEKRKDEHQSISKDFKSQEELISSLTTGLSTTEGHETGYSRKLHEARDTLNDFKAEKETNRLKLEGLNKQISLTKPKKAEATKRCDQLNREIDILQNHVEKLKMSLKNTNSDITGEDVLQQKLKQLAKDRGNLLNELDALKSKLAYMEFTYTDPTPNFDRSKVKGLVAQLLTLNEENYDKQTALEITAGGRLYNLIVETEKIGAQLLQKGNLKRRVTIIPLNKITSFVASAERVGAAKKISNNKAQLALELIGYDDELLPAMQYVFGSTLVCDTPESAKKVTFHPSVKLKSVTLDGDVYDPSGTLTGGSVNKSAGPLLQIQKLNSLQLKLQVVTSEYEKLETQLKDLKTQNANFHRLEQEIQLKQHELTLLIEQRETDSSFRLLSDYQQYKDDVKDLKQRLPELDRLILQSDQAIKKIERDMQEWKHNKGSKMAELEKEFNQYKHKLDEFTPILEKSENDYNGVKLECEQLEGELQNHQQSLVQGESTTSLIKTEIAELELSLVNEEHNRKKLTELIEIESAKFSGLNKEIDSLSTSMKTFESEINNGELTIQKLNHEFDRLEREKSVAITAINHLEKENDWIDGQKQHFGKQGTIFDFHSQNMRQCREQLHNLKPRFASMRKAINPKVMDMIDGVEKKEAKLRSMIKTIHRDKKKIQDTVKSIDRFKRSALEKTWREVNSSFGEIFDELLPGNSAELQPPENKEFTDGLEIHVKIGSIWKDSLAELSGGQRSLVALALIMSLLKYKPAPMYILDEIDAALDLSHTQNIGRLIKTKFKGSQFIIVSLKEGMFTNANRLFHVRFMDGSSVVQAR
B3: Cnd1 (fission yeast condensin subunit) (protein, UniProt O94679 1-1158)
chain: MSLDLLSRLKKYIHDEENSDLDSIYAECENAGLTAVVNDVIDTLLLGTSSCFDEDCLEKLFAICSHFADLSSSVRNKVYDLLTSNISSESAILEDMISANATDFTVPQTNLETTGIAFQLTVNSLSSSNQLSVIRSSTNTVKGRKKNPTTNSNWNGISHVNALLDAIITLFQKKLSRVWTTSSERDMFLSLFLKPIYTLMESEINIKNASFRSRLFNIIGLAVQFHNHTTAAETNIIQNLQYFEHLSEYAADLVHIVTVQFNSVTLAEGIIRTLCSLEFNDNDVKGPKQVALFLVRLSSLIPNLCLKQLTQLVKLLDSESYTLRCAIIEVLANVVIDQIHDEAQNEMSESVPATVQSLMDLLSERLLDISPYCRTKVLHVFIKIFDLPIKYPRKRQEIAELVIRCLQDRSSHVRRNAIKLFSKLLTTHPFSVMHNGLLTRNIWEKGLSIIEEQLNSLQPKQQEKVVDSELEVDENLLEDATMIQDDESHEGESHLENSLSEYVDSVPAEEIVKVNLTKRFYLEALQYIDIVEAGAKIISQLLFAKNKSEVIESMDFFVFCNSFGISSSKLYIKKMIHLIWVKGTSDEGNNIQNHVLSCYKTLFFEPPPNSGTNEAANYIARNLISLTYDASLAELTSLEQMLCILMKDGYFSHLVITKLWQVYSYQKKDISRTQRRGSIIVIGMLALGNTDVVMQGLDHLIQIGLGPPGLEDLVLARYTCIAIKRIGKDASGSSNINFPNSHTLCQKLCMLLLRPSFSEEWFGLEEQAIEAIYAVAKHPDELCTNIILLLTKQLFKPSNHENTTSNDDHAMDEDLDDSPEEETLKDEEEIGIRLAHLIFLVGHVAIKQLVYIEYCEAEFKRRKADAERLAVQNSNNPINGQETSEYDLITGTSEDDFSEAMTFIRERELLYGENSLLSRFAPLVVELCSNHKSHNNQSLLLAASLTLSKFMCLSNNFCMEHLPLLITILEKCDNPIIRNNLVIGLADLTVCFNHFIDEISEYLYRRLMDEESSVKKTCFMTLAFLILAGQIKVKGQLGIMARSLEDEDARISDLARMFFTDFAAKDNSVYNNFIDIFSVLSRSAEEQDEDDAKFKRIIRFLTSFIEKERHTKQLAERLAARLDRCKTQRQWDHVVYALSLLPHKADNIQKLIDDGYHE
B4: Cnd3 (fission yeast condensin subunit) (protein, UniProt Q10429 1-875)
chain: MSCIQIISSSQTSIAGHRKLCNKLFTLRTQEGFETDILRALNIILTVKKGNSNADRVLRFLVTFVNYLQQKDPEIDIVQPILKHILRGLDAKDKTVRYRCCQIIARVVNCVKEIDDDLYNTLKEKLLSRVLDRESIVRLEAVVALSRLQEDTGDEENDVRNILLFLLQNDPSSEVRRSVLLNIEVSNSTLPFILERARDVDAANRKCVYARVLPKIGDFRYLSIKKRVRILKWGLNDRDESVEKAAADMLAYQWIENADNNLLELLERLDVSNNSDVAVLAIKKFFDVRVDSLSQLEFPEQFWLELTAESSLLARTFNEICIEKNYTDLLDKMPEVVQLTYYIERQYVSLRDKSSYDESCFIIEQLLYIGLSQDMVDEIGRRKLLKSLTNSLSTMALPDSLISLHIELLRKLCSSENDFCSLLVEIITEVFEQGHSQNQTEEQGNSNAPELNKNDYEGEEITVSQKSPSPSLPPNELNEPEPDDMDGYKEAFNELRCLSYVQCLFENITSSLNENLYMVDMLKTLIIPAVRSHDLPIREKGLECLSLVCLLNADLAFENVPLYLHCYEKGSVVLKCTAIRTLTDMLIQHGKAKFTEYEDAISSILFEALGEFENAELQTLGAEAIAKLLVILHYRDELFLKPLIIQYFEPNTVDNHALRQVLGYFFPVYAFGAHENQWRIATIFCDALLSLLEIYRDLDEDDVQLSIGHIAQQMLDWTDNEKLYERKTQTGDDYIALNHNVHLHLANMIFESLPNASEGKERKFMISLLGKLKIPTDLPSSDYQRTKRKLETYESHGFTMDSTSLSILAKFERMLLQNEEARSKFEETEEERLMENAEENEHAGAEAISGEIIPDTVEANMEDEEEVYVKQEEDL

Biological target: T1, Cnd2-3C-ProtA2 (fission yeast condensin subunit Cnd2 with a 3C-cleavable protein A tag) (Schizosaccharomyces pombe) (UniProt Q9Y7R3)
T1 sequence: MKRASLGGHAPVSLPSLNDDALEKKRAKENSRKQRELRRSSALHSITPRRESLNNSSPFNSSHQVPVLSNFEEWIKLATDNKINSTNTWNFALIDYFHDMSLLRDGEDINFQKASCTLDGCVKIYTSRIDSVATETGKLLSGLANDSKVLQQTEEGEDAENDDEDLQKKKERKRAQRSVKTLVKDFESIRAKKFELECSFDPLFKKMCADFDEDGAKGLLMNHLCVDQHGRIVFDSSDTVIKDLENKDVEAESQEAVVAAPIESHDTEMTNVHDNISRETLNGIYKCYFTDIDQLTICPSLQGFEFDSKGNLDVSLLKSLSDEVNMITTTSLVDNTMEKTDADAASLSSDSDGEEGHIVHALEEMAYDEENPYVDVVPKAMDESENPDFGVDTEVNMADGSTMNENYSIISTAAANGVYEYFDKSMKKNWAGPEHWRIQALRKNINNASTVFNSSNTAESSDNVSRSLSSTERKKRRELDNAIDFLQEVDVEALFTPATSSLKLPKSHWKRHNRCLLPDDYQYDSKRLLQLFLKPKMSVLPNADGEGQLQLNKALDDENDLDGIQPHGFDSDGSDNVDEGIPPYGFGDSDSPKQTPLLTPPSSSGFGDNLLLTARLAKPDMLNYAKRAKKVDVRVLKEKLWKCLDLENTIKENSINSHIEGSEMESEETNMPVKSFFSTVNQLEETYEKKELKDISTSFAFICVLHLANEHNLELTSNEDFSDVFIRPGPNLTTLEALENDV
Assay: pull-down; IgG pull-down: cleared lysate of budding yeast co-overexpressing the five subunits, rabbit IgG agarose beads capture Cnd2-ProtA2, 4°C 1 h; washes in 40 mM Tris-HCl pH 7.5, 300 mM NaCl, 10% glycerol, 2 mM DTT; bead-bound protein on SDS-PAGE, Coomassie staining

**Q.** B1 was tested. Which binding did it give?
**A.** Its binding is “binds”.

**Q.** B2 was tested. Which binding did it give?
**A.** The binding was “binds”.

**Q.** For B3, which binding is on record?
**A.** The binding was “binds”.

**Q.** With B4 as the binder, how does the binding read?
**A.** The binding was “binds”.
